{"source": "patent US7208309B2", "about": "“Inhibitor-resistant HCV NS3 protease” (priority 2002, dated 2007)", "system": "NS3 mutant (A156T, A156V, D168V, D168G) HCV replicon cell lines", "assay": "Shift of cell culture EC50 in NS3 mutant replicon cell lines relative to WT", "assay_type": "cell-based", "details": "D168G mutants versus WT", "note": "At least one read-out could not be matched to a standard name with certainty.", "data": [{"substance": "IFN-α", "values": [{"measurement": "effect of the four mutants on the EC50", "value": "no effect"}]}]}
